{"source": "patent US7303876B2", "about": "(Applera Corporation, priority 2000, dated 2007)", "system": "Liver tissue", "assay": "Integrity of nucleic acid released from liver slices with aurintricarboxylic acid, 55° C., 30 minutes", "conditions": "0.1-5 mM in reaction composition, FIG. 11", "protocol": "Slices of liver tissue (77-186 mg/sample) were placed into twenty-one Eppendorf tubes. To each tube was added 400 μL of a reaction composition comprising 50 mM MES, pH 6.0, 20 mM CaCl2, and additional components as shown in Table 10.\nThe tubes were incubated at 55° C. with mixing (Eppendorf Thermomixer, Model 5436) for 30 minutes. The resulting surfactant-protease complex was solubilized using methods the same as or similar to those described in Example 7. Undigested tissue fragments were removed by centrifugation using methods the same as or similar to those described in Example 7. The supernatant was phenol extracted, isopropanol precipitated and ethanol washed using methods the same as or similar to those described in Example 6.", "note": "At least one compound was matched to its structure with a doubt left.", "data": [{"smiles": "O=C(O)C1=CC(=C(c2ccc(O)c(C(=O)O)c2)c2ccc(O)c(C(=O)O)c2)C=CC1=O", "note": "[aurintricarboxylic acid]", "values": [{"measurement": "yield of high molecular weight nucleic acid", "result": "enhanced the yield of high molecular weight nucleic acid"}]}]}
